Measurements: publication doi:10.1101/2020.12.09.417287
These are yes or no findings as the source states them, for the method shown. In cells and extracts the contact can be indirect. Some entries that bind do so weakly or less than the wild type. Sequences can lack the tags named with a protein.

Sequences of proteins named here, by UniProt entry; tags and fusion partners are left off. Residues count along the entry.
UniProt P28331, residues 24-727: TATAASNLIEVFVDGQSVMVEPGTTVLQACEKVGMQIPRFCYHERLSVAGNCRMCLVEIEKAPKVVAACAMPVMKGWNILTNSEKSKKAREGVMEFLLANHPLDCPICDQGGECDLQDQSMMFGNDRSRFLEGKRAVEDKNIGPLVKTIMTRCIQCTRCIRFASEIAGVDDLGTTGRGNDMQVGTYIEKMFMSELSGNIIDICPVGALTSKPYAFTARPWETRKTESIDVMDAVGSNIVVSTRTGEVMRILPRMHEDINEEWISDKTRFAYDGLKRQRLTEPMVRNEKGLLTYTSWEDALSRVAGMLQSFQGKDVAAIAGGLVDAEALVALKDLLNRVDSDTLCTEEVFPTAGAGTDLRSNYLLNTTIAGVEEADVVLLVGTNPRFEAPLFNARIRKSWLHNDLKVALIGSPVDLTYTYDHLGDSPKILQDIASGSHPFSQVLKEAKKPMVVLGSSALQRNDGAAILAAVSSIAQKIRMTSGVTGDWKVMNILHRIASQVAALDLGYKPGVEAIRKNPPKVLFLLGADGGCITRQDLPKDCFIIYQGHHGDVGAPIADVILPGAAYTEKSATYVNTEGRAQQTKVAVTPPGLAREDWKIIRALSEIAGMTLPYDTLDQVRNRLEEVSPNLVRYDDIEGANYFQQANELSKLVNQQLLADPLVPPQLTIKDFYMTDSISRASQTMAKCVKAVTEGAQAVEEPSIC
UniProt P47985, residues 79-274: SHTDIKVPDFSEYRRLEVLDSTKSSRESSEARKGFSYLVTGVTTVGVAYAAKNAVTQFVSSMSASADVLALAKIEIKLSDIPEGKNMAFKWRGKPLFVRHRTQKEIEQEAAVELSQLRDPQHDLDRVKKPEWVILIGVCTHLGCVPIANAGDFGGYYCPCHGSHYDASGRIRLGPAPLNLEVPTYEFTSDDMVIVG

Target: T1, Ovarian carcinoma immunoreactive antigen-like protein 2 (OCIAD2) with an N-terminal FLAG-tag (human) (UniProt Q56VL3)
T1 sequence: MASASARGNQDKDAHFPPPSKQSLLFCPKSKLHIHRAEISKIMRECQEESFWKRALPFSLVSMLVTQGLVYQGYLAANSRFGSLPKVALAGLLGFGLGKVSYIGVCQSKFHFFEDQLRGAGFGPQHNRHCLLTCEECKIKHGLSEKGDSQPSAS
Test: co-IP

| Substance | binding |
| --- | --- |
| NDUFS1 (from UniProt P28331 24-727) | binds |
| Rieske protein (UQCRFS1) (from UniProt P47985 79-274) | binds |
